Source: the supplement of paper PMC10338343
± gives the standard deviation. The list shows a part of the results. The uncertainty is large for many entries.

system: EfPiwi piRISC loaded with L1MC piRNA (26 nt); experiment: pre-steady-state target cleavage rate (min^-1); guide: L1MC piRNA 5'p-UAACUAAAUACUAUGCAAGCUGUAGG; MIWI and MILI are mouse PIWI proteins and EfPiwi is from a freshwater sponge; tags in brackets are library labels; higher = faster piRNA-guided slicing of the target; details: auxiliary factor: 500 nM Ephydatia muelleri Gtsf1
Method in brief: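 For Cleave-'n-Seq, a transcribed, DNA-blocked target RNA library […] met 1 nM active affinity-purified piRISC with one synthetic guide at 33 °C for 0–8 or 0–960 min in HEPES–potassium acetate buffer, with or without 500 nM GTSF1 partner protein. Uncleaved targets were sequenced and normalised to depth and weakly complementary targets, with three trials pooled and k3 capped at 0.0001 min^-1. A burst-and-steady-state fit supplied the pre-steady-state cleavage rate.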

Which “pre-steady-state target cleavage rate” value does the source give for UCCUGGAUGAGCUUGCAUAGUAUUUAGUCA here?
Its value is 0.00793 ± 0.0032.

For UCCUGGUAGUGCUUGCAUAGUAUUUAGUAA, which “pre-steady-state target cleavage rate” value is on record?
Its value is 0.00326 ± 0.0024.

How did the “pre-steady-state target cleavage rate” value turn out when UCCUGGAUCAGCUUGCAAAGUAAUUAGUUA was run?
Its value is 0.00209 ± 0.0032.

UCCUGGUACAGCUUGCAUUGAAUUUAGUUA was tested. Which “pre-steady-state target cleavage rate” value did it give?
Its value is 0.000511 ± 0.013.

For UCCUGGAUGUGCUUGCAUAGUAUCUUAGUUA, which “pre-steady-state target cleavage rate” value is on record?
The value was 0.00353 ± 0.0036.

For UCCUGGAUGUCCUUGCAUAGUCUUUAGUUA, which “pre-steady-state target cleavage rate” value is on record?
Its value is 0.00326 ± 0.0014.

For UCCUGGAUGUCGAACGAUAGUAUUUAGAUUA, which “pre-steady-state target cleavage rate” value is on record?
The value was 0.00027 ± 0.018.

For UCCUCCUACUGCUAGCAUAGUAUUUAGUUA, which “pre-steady-state target cleavage rate” value is on record?
Its value is 0.0131 ± 0.004.

Which “pre-steady-state target cleavage rate” value does the source give for UCCUGGUACAGGUUGCAUAGUAAUUAGUUA here?
Its value is 0.0027 ± 0.004.

How did the “pre-steady-state target cleavage rate” value turn out when UCCUGGAUCAGCUUGCAAAGUAUUUAGUAA was run?
Its value is 0.00607 ± 0.0027.

With UCCUGCUACAGCUUGCUAAGUAUUUAGUUA as the sequence, how does the “pre-steady-state target cleavage rate” value read?
The value was 0.00353 ± 0.0029.

UCCUGGAUGUGCUGGCAUAGUAUUUAGUUA was tested. Which “pre-steady-state target cleavage rate” value did it give?
Its value is 0.00525 ± 0.0029.

How did the “pre-steady-state target cleavage rate” value turn out when UCCUGGAACAGCUUGCAUACUUUUUAGUUA was run?
The value was 0.000898 ± 0.0064.

How did the “pre-steady-state target cleavage rate” value turn out when UCCUGGAUGAGCUUGCAAAGUAUUUUGUUA was run?
Its value is 0.00261 ± 0.0035.

How did the “pre-steady-state target cleavage rate” value turn out when UCCUCCUACAGUCUUGCAUAGUAUUUAGUUA was run?
The value was 0.0171 ± 0.006.

For UCCUGGAUGUCGAACGUAUGUUAUUUAGUUA, which “pre-steady-state target cleavage rate” value is on record?
Its value is less than 0.0001.

How did the “pre-steady-state target cleavage rate” value turn out when UCCUGGUAGAGCUUGCAUUGUAUUUAGUUA was run?
Its value is 0.00786 ± 0.0033.

With UCCUGCUACAGCUUGGUUAGUAUUUAGUAA as the sequence, how does the “pre-steady-state target cleavage rate” value read?
Its value is 0.00273 ± 0.0024.

With UCCUGGAUGUGCUGCAUAGUAUUUAGUUA as the sequence, how does the “pre-steady-state target cleavage rate” value read?
The value was 0.00571 ± 0.0034.

With UCCUCCUACAGCUUGCAUUGUAUUUACUUA as the sequence, how does the “pre-steady-state target cleavage rate” value read?
The value was 0.00243 ± 0.0028.

UCCUGGAACAGCUUGCAUAGAAAUUAGUUA was tested. Which “pre-steady-state target cleavage rate” value did it give?
The value was 0.00226 ± 0.0033.

For UCCUGCUACACCUUGCAUACUAUUUAGUUA, which “pre-steady-state target cleavage rate” value is on record?
Its value is 0.00403 ± 0.0024.

With UCCUGGAUGUCCUUGCAUAGUAUUAAGUUA as the sequence, how does the “pre-steady-state target cleavage rate” value read?
The value was 0.00404 ± 0.0034.

Which “pre-steady-state target cleavage rate” value does the source give for UCCUGCUACUGGUUGCAUAGUAUUUAGUUA here?
The value was 0.0113 ± 0.0035.
